No end group written: not given here.
Assay: general procedure: peptide synthesis; chlorotrityl chloride resin
Settings: whole synthesis

With RWRRKIEN the crude mass was 0.65 g and the crude yield (scale of the general procedure 700 mg resin) was 92.0%.
